These are yes or no findings as the source states them, for the method shown. Binding seen in cells or lysates may run through a third protein. Some results given as binding are weak or reduced against the parent protein; the word gives no strength.

Protein sequences, listed by entry. Tags and fused reporters are not part of them.
UniProt Q13761: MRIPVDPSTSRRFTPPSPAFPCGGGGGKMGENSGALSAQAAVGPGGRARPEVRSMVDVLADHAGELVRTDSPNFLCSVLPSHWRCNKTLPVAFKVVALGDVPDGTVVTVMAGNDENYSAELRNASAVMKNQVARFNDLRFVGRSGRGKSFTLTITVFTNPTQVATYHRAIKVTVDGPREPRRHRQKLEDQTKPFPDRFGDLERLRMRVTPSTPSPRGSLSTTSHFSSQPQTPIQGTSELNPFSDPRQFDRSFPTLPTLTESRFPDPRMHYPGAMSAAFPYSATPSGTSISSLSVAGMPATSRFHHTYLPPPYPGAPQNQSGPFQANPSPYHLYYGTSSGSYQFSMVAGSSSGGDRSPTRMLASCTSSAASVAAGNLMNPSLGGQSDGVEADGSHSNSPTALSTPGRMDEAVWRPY

This test concerns the target T1, ETS1 (human (endogenous in OCI-Ly1)) (UniProt P14921).
T1 sequence: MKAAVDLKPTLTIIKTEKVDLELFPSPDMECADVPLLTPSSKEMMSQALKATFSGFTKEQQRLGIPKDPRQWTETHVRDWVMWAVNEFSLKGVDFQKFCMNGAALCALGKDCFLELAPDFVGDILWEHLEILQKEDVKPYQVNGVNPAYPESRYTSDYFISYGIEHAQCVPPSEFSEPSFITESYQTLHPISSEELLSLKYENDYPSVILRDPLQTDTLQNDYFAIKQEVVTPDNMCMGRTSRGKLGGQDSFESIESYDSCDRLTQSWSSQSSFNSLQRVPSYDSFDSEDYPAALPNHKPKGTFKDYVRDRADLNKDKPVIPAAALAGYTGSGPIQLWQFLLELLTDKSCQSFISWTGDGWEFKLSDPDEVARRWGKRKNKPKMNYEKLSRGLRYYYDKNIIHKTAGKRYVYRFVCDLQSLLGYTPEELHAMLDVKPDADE
Kind of test: co-IP; endogenous ETS1 immunoprecipitated with anti-ETS1 antibody on Protein A magnetic beads from 3 mg OCI-Ly1 lysate (Pierce IP Lysis Buffer, overnight at 4 °C), immunoblot for RUNX3; ARID1A WT and KO clones.

Turning to RUNX3 (from UniProt Q13761 1-415), the binding result is given as “binds”.

These data come from paper PMC12089402.
